PubChem BioAssay AID493014 (National Center for Advancing Translational Sciences (NCATS), 2011)
This is one part of the list. The main result of the screen is listed elsewhere. These columns were measured beside it and carry no call. Most of these compounds were active or inconclusive in the main read-out, so they are no random draw. Potencies come from curve fits of mixed quality, noted in brackets.

Experiment: qHTS Assay to Find Inhibitors of Chronic Active B-Cell Receptor Signaling
Details: ABC-DLBCL IkBa-CBG/CBR reporter, luminescence ratio (green luciferase fused to IkBa over red control in TMD8 lymphoma cells), 4 h
In short: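 TMD8 human ABC-DLBCL cells with doxycycline-inducible IκBα–green luciferase fusion and unfused red luciferase, in 0.5% FBS medium; compounds up to 46 uM, 4 h at 37C. Green/red luminescence ratio, filter-overlap corrected, fitted to concentration-response curves.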

[1] = measured here: CBR red luminescence, cell number
[2] = measured here: IkBa-CBG green luminescence

| SMILES | AC50 [1] | AC50 [2] |
| --- | --- | --- |
| O=C1c2cccc3cc([N+](=O)[O-])cc(c23)C(=O)N1CCN1CCCC1 | 35.5 µM [falling, single point] | 6.31 µM [rising, partial curve, poor fit] |
| COc1ccc2nc3oc(C(=O)N4CCCCC4)cc3cc2c1 | 32.6 µM [falling, single point] | – |
| Cc1cc(C)c2c(N)c(C(=O)NN3CC(=O)N(c4ccccc4)CC3=O)sc2n1 | 7.08 µM [falling, partial curve] | 6.31 µM [rising, full curve] |
| CCc1ccc(NC(=O)c2cc(S(=O)(=O)N3CCCC3)ccc2F)cc1 | 17.8 µM [falling, partial curve, poor fit] | – |
| Cc1noc(C)c1S(=O)(=O)Nc1ccc2c(c1)C(=O)N([C@H](C)CO)C[C@H](C)[C@@H](CN(C)C(=O)NC1CCCCC1)O2 | 25.9 µM [rising, partial curve, poor fit] | – |
| N#CC1C(C#N)N2CCCN2C1c1ccc(Br)cc1 (configuration not stated) | 6.31 µM [falling, single point] | – |
| COc1ccc(S(=O)(=O)N(C)c2ccc(C(=O)Nc3cccnc3)cc2)cc1 | 35.5 µM [falling, single point] | – |
| O=C(OCc1cccc(C(F)(F)F)c1)c1cc([N+](=O)[O-])ccc1N1CCOCC1 | 2.06 µM [rising, partial curve] | – |
| CN(C)CCCn1c(SCC(=O)N2c3ccccc3Sc3ccccc32)nc2ccccc2c1=O | 9.2 µM [falling, partial curve] | – |
| Cc1ccccc1N/C(=N/S(=O)(=O)c1cc(F)ccc1F)c1ccccc1 | 8.91 µM [falling, partial curve, poor fit] | – |
| COc1cc(/C=C(\C#N)C(=O)N2CCc3ccccc32)ccc1O | 1 µM [falling, full curve, poor fit] | – |
| N#Cc1ccccc1OCC(=O)Nc1cccc(S(=O)(=O)N2CCCC2)c1 | 2.31 µM [falling, full curve] | – |
| COc1ccc(N2CCN(C(=O)c3ccc4c(c3)NC(=O)C(CSCc3cccc(F)c3)N4)CC2)cc1 (configuration not stated) | 35.5 µM [rising, single point] | 15.8 µM [falling, single point] |
| COc1ccc(C(=O)Nc2nnc(SCC(=O)NCc3ccco3)s2)c(OC)c1 | 8.91 µM [falling, partial curve] | – |
| COc1cc2ncc(S(=O)(=O)c3ccccc3)c(N3CCCC(C)C3)c2cc1OC (configuration not stated) | 12.6 µM [falling, single point] | – |
| O=C(NC(=S)N1CCN(c2c(Cl)cccc2[N+](=O)[O-])CC1)c1cccs1 | 20.6 µM [rising, single point] | – |
| O=C(c1cccc(S(=O)(=O)N2CCOCC2)c1)N1CCCCCC1 | 13 µM [rising, single point] | – |
| O=C(CSc1ncccn1)N1CCCc2ccccc21 | 35.5 µM [rising, single point] | – |
| COc1ccc2cc3c(N)nn(C(=O)c4ccc(F)cc4)c3nc2c1 | 4.47 µM [falling, full curve, poor fit] | – |
| Cc1nc(-c2cccc(NS(=O)(=O)c3cccc4ccccc34)c2)cs1 | 6.51 µM [falling, partial curve, poor fit] | – |
| COc1cc(-c2noc(C)c2C(=O)NCCc2cccs2)cc(OC)c1OC | 1.84 µM [rising, full curve, poor fit] | – |

Shown with bars between the fields: entries from further up.
SMILES | AC50 [1] | AC50 [2]
CCc1ccc(NC(=O)c2cc(S(=O)(=O)N3CCCC3)ccc2F)cc1 | 17.8 µM [falling, partial curve, poor fit] | –
COc1ccc(N2CCN(C(=O)c3ccc4c(c3)NC(=O)C(CSCc3cccc(F)c3)N4)CC2)cc1 (configuration not stated) | 35.5 µM [rising, single point] | 15.8 µM [falling, single point]

Later entries

| SMILES | AC50 [1] | AC50 [2] |
| --- | --- | --- |
| CCN(CC)c1ccc(NC(=O)CN(C)Cc2cccs2)cc1 | 35.5 µM [rising, partial curve, poor fit] | – |
| O=C1C2CC=C(Cl)CC2C(=O)N1CCCCCCN1C(=O)C2CC=C(Cl)CC2C1=O (configuration not stated) | 7.31 µM [rising, single point] | – |
| COc1ccccc1NC(=O)NN1CCCCC1 | 8.91 µM [rising, partial curve, poor fit] | – |
| Cc1nc2cc(-c3ccc(Br)cc3)[nH]n2c(=O)c1Cl | 2 µM [falling, full curve] | – |
| CCOc1ccc(Nc2nc(Cc3nnc(SCC(N)=O)o3)cs2)cc1 | 29.1 µM [falling, single point] | – |
| O=C(Nc1ccc(N2CCCCC2)cc1)c1cccnc1 | 23.1 µM [falling, single point] | – |
| Fc1ccc(Oc2nc(-c3ccccn3)nc3ccccc23)cc1 | 35.5 µM [falling, single point] | – |
| O=C(COC(=O)c1cc(Br)ccc1O)NNC(=O)c1ccc(Cl)cc1 | 2.59 µM [rising, full curve, poor fit] | – |
| O=C(NNc1nc2ccccc2s1)Nc1ccc(F)cc1 | 15.8 µM [falling, partial curve, poor fit] | – |
| O=C(NC1CCCCCC1)c1ccc(S(=O)(=O)NCc2ccco2)cc1 | 29.1 µM [rising, single point] | – |
| Cc1ccc(-n2ncc3c(N4CCC5(CC4)OCCO5)ncnc32)c(C)c1 | 10.3 µM [falling, single point] | – |
| Cc1c(Nc2nc(-c3ccc(Cl)cc3)cs2)c(=O)n(-c2ccccc2)n1C | 8.2 µM [falling, partial curve] | – |
| COc1cc2c(cc1OC)C1(C)N(CC2)C(C(C)=O)=NN1c1ccc(Cl)cc1 (configuration not stated) | 35.5 µM [falling, single point] | – |
| COc1ccc(C2(C)NC(=O)N(CC(=O)c3cc(C)n(C4CC4)c3C)C2=O)cc1 (configuration not stated) | 20.6 µM [rising, single point] | – |
| CCOC(=O)C1(CCCc2ccccc2)CCN(C2CCSCC2)CC1 | 35.5 µM [rising, single point] | 35.5 µM [falling, single point] |
| CC(=O)Nc1ccc(S(=O)(=O)Nc2cc(C)ccn2)cc1 | 35.5 µM [falling, single point] | – |
| O=c1c2oc3nc4c(cc3c2ncn1CCCc1ccccc1)CCCC4 | 17.8 µM [rising, partial curve, poor fit] | – |
| CCCn1cc(CN2CCN(Cc3ccc(C)o3)C(CCO)C2)c(C)n1 (configuration not stated) | 10 µM [rising, partial curve, poor fit] | – |
| CC1CCN(Cc2cc(=O)oc3cc4c(cc23)CCCC4)CC1 | 20 µM [rising, partial curve, poor fit] | – |
| COC(=O)N/N=C/c1cn(Cc2c(Cl)cccc2Cl)c2ccccc12 | 29.1 µM [falling, single point] | – |
| CCc1ccc(CCC(=O)Nc2nccs2)o1 | 18.4 µM [falling, partial curve] | – |

| SMILES | AC50 [1] | AC50 [2] |
| --- | --- | --- |
| O=C(Nc1ccc(N2CCCCC2)cc1)c1cc(S(=O)(=O)N2CCOCC2)ccc1F | 7.31 µM [falling, partial curve, poor fit] | – |
| Cc1nc(C(=O)NC2CCOCC2)sc1C1(C)CC(c2cccc([N+](=O)[O-])c2)=NO1 (configuration not stated) | 0.708 µM [rising, full curve, poor fit] | – |
| Cc1sc2nc(SCC(=O)NCc3ccco3)n(Cc3ccccc3)c(=O)c2c1C | 18.4 µM [falling, single point] | – |
| O=C(COC(=O)c1ccc(F)c(S(=O)(=O)N2CCOCC2)c1)NCCc1ccc(F)cc1 | 18.4 µM [falling, single point] | – |
| O=C(CSc1nc2ccc(NC(=O)c3ccccc3C(=O)O)cc2s1)Nc1ccc(F)c([N+](=O)[O-])c1 | 11.2 µM [falling, single point] | – |
| CCc1nc2ccc(C(=O)N(C)CC(=O)Nc3ccccc3C(F)(F)F)cc2nc1CC | 2.06 µM [rising, partial curve, poor fit] | – |
| CCOC(=O)C(NC(C)=O)(Nc1ccc(S(=O)(=O)Nc2onc(C)c2C)cc1)C(F)(F)F (configuration not stated) | 6.51 µM [rising, full curve, poor fit] | – |
| CSCCNCc1cn(-c2ccc(F)cc2F)nc1-c1ccccc1C | 0.178 µM [rising, full curve, poor fit] | – |
| COC(=O)Cc1cc(=O)n2[nH]c(C)cc2n1 | 7.31 µM [falling, single point] | – |
| CNC(=O)c1sc2nc(-c3ccc(OC)cc3)cn2c1C | 0.58 µM [rising, full curve, poor fit] | – |
| Cc1cccc(C(=O)NCC(=O)OCC(=O)N2CCCCC2)c1 | 35.5 µM [rising, single point] | – |
| Cc1ccc(-c2cccc(CN3CCN(C(C)C)C(CCO)C3)c2)o1 (configuration not stated) | 7.94 µM [rising, partial curve, poor fit] | – |
| Cc1ccc(S(=O)(=O)Nc2nc3ccccc3s2)cc1 | 20.6 µM [rising, single point] | – |
| C/C(=N\Nc1nc(C(C)(C)C)cs1)c1ccccc1 | 31.6 µM [falling, single point] | – |
| CC/C=C/C(=O)N1CC2(CC(c3cccc(NC(=O)c4ccccc4)c3)=NO2)C[C@@H]1C(N)=O (some centres not stated) | 15.8 µM [falling, single point] | – |
| NC(=O)c1ccsc1NC(=O)c1coc2ccccc2c1=O | 0.562 µM [rising, full curve, poor fit] | – |
| CCOC(=O)C1CCN(Cc2c(O)ccc3ccccc23)CC1 | – | 23.1 µM [rising, partial curve, poor fit] |
| CCSCc1nc(N)nc(NCCc2ccccc2)n1 | 35.5 µM [falling, single point] | – |
| NC(=O)C1CC(=O)N(c2ccc(OCc3ccc(Cl)cc3Cl)cc2)C1 (configuration not stated) | 6.31 µM [rising, single point] | – |
| COC(=O)Nc1nc(-c2ccccc2)c(C(=O)c2ccc(Cl)cc2)s1 | 5.17 µM [rising, single point] | 3.26 µM [falling, partial curve, poor fit] |

By substructure, the entries above containing a thiophene ring, fused or not.

| SMILES | AC50 [1] | AC50 [2] |
| --- | --- | --- |
| Cc1cc(C)c2c(N)c(C(=O)NN3CC(=O)N(c4ccccc4)CC3=O)sc2n1 | 7.08 µM [falling, partial curve] | 6.31 µM [rising, full curve] |
| O=C(NC(=S)N1CCN(c2c(Cl)cccc2[N+](=O)[O-])CC1)c1cccs1 | 20.6 µM [rising, single point] | – |
| COc1cc(-c2noc(C)c2C(=O)NCCc2cccs2)cc(OC)c1OC | 1.84 µM [rising, full curve, poor fit] | – |
| CCN(CC)c1ccc(NC(=O)CN(C)Cc2cccs2)cc1 | 35.5 µM [rising, partial curve, poor fit] | – |
| Cc1sc2nc(SCC(=O)NCc3ccco3)n(Cc3ccccc3)c(=O)c2c1C | 18.4 µM [falling, single point] | – |
| NC(=O)c1ccsc1NC(=O)c1coc2ccccc2c1=O | 0.562 µM [rising, full curve, poor fit] | – |
